The other results are listed elsewhere or left out.

The results in this text go back to article PMC7819943, “Rice protein-binding microarrays: a tool to detect cis-acting elements near promoter regions in rice”.

For the test, the target named is T1, OsSMF1 (Oryza sativa, UniProt Q6ZLB0 1-436).
T1 sequence: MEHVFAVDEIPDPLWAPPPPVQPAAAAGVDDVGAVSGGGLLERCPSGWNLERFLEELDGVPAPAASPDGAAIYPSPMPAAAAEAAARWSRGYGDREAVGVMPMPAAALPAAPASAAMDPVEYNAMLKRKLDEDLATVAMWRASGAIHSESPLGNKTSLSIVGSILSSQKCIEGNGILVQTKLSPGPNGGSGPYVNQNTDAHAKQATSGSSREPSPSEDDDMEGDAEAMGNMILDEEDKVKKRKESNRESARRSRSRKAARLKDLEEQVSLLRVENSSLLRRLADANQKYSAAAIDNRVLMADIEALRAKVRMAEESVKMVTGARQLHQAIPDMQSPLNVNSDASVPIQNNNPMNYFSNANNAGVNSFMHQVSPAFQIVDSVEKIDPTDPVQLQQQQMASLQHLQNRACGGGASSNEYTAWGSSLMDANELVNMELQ
As to the kind of experiment: protein-binding microarray (RPBM); PBS, 2% BSA, 51.3 ng/ul salmon testes DNA, 50 uM zinc acetate, 200 nM TF, 25 C, 1 h; high values mean tight binding. The following applies: protein: recombinant; tags: N-terminal polyhistidine and DsRed monomer fusion (pET32a); chain copies: 2; label: CyDye5-dUTP incorporated in the synthesized complementary strand; 3' TTTTT single-stranded linker to array surface; dsDNA, one strand shown. The essentials:
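For the binding signal, per-feature fluorescence intensity was read in arbitrary units on an Axon 4000B scanner. Before scanning, a 2% BSA-blocked custom Agilent array made double-stranded with Cy5-dUTP was washed after 1 h at 25 °C with 200 nM protein and 50 µM zinc acetate. The proteins were Ni–NTA-purified transcription factors with N-terminal polyhistidine and DsRed fusions, expressed in E. coli BL21-CodonPlus.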
On to “CCCAACCTCGTATGTGCCACCTGTGGCAAGTCCTGCCGCTCGGAGTCACCTAGTGCAG”, for which the binding signal is 3590 fluorescence intensity (a.u.).
Turning to “GGCCCACGCCCCACGTAACGTAGCGTACAGTGTACACCTGCGGAGTCACCTAGTGCAG”, the binding signal is 6940 fluorescence intensity (a.u.).
Under “AGGCGCATCCACCCTTCTCGCTGAGACATTTCCATCGAGCCGGAGTCACCTAGTGCAG” stands 3220 fluorescence intensity (a.u.); under “CACCGCCGCTGCCACCGCACGCACGCCCGCCACTTCGCTGCGGAGTCACCTAGTGCAG”, 3160 fluorescence intensity (a.u.).
Under “CGATGCAGCTGCACACGCCGCTGTTCTACGCCACCTGCGCCGGAGTCACCTAGTGCAG” stands 3610 fluorescence intensity (a.u.); under “ATGTTGGGCCCTACATGTCAGTCAGACAGTCACCTTGTTGCGGAGTCACCTAGTGCAG”, 5550 fluorescence intensity (a.u.); under “CGTTACTGCCTGACGTCATCCACCTCTCCTGTTTCCGTTTCGGAGTCACCTAGTGCAG”, 24800 fluorescence intensity (a.u.).
With “GCACATCGCGCTCGCCGAAGCAGAACCACGCGGCCACCGGCGGAGTCACCTAGTGCAG” the figure was 3240 fluorescence intensity (a.u.).
“GGCCTATCACATTTGGAAGATTATGGCTAGTCATTACACACGGAGTCACCTAGTGCAG”: the binding signal was 3550 fluorescence intensity (a.u.).
Under “AGCTGGCGTGATGTGTGTCTCATGCACACCCATAATGTGACGGAGTCACCTAGTGCAG” stands 3470 fluorescence intensity (a.u.); under “TCTTCTGTGATTTGCTCATTTCGTTCCCCAAACAGGGCGCCGGAGTCACCTAGTGCAG”, 3780 fluorescence intensity (a.u.); under “CGCTGCCACGCCACTATAATCTCGGCCGCGCCGACGTCGCCGGAGTCACCTAGTGCAG”, 4220 fluorescence intensity (a.u.).
For “CCTCTGGTCACGCATTCTACACAGAATCTCTGGTTTTCCCCGGAGTCACCTAGTGCAG”, the binding signal is 3180 fluorescence intensity (a.u.).
On to “CAAATTTGGTGGCCCAGTCATTGCAATCATGATGAGAGTCCGGAGTCACCTAGTGCAG”, for which the binding signal was 4420 fluorescence intensity (a.u.).
Under “AAAATTTATTCATCCATCGTCATAATTTTAATTATATGCACGGAGTCACCTAGTGCAG” stands 4150 fluorescence intensity (a.u.).
Consider “ATTCGGTCATTTCGCCGCCACCACCGCCGCCGCCGTCGTGCGGAGTCACCTAGTGCAG”, for which the binding signal is 3290 fluorescence intensity (a.u.).
“AGGGCGCTTTTGGCTGACATGGCGCCTACGTGGCTTGTTTCGGAGTCACCTAGTGCAG”: the binding signal was 28100 fluorescence intensity (a.u.).
Regarding “GCAAGCCACATTATGATGAAGTGTGGATTTGCCAAGTCAGCGGAGTCACCTAGTGCAG”, the binding signal is 5130 fluorescence intensity (a.u.).
With “CTTGCTCCACGTCGGAACTTCCAAGGTACTTTCTCCGTTTCGGAGTCACCTAGTGCAG”, the binding signal was 6870 fluorescence intensity (a.u.).
In the case of “CCACCATATCTCCTTACACGTCGTCCAGCCGGTGCGATACCGGAGTCACCTAGTGCAG”, the binding signal was 3640 fluorescence intensity (a.u.).
With “CAATGCTGGACTTATCGGGTAACGCGCTTACCGGCACTCTCGGAGTCACCTAGTGCAG” the figure was 19200 fluorescence intensity (a.u.); with “ACATTTTAATACGATTGTTGCCGTGACTTTGTAACCCCAACGGAGTCACCTAGTGCAG”, 25600 fluorescence intensity (a.u.); with “CACATGGGTTGCGCGCCTACACACGTCGATCCAGGACAAGCGGAGTCACCTAGTGCAG”, 4540 fluorescence intensity (a.u.).
Under “GTTATTATATGAGAGAAAATATAATGATGTTAGCCGCGTACGGAGTCACCTAGTGCAG” stands 3470 fluorescence intensity (a.u.); under “TACTACTCTCCTTTCTTTACGTGGTAGCTGGGCTGGGCTGCGGAGTCACCTAGTGCAG”, 3450 fluorescence intensity (a.u.); under “AATGCCCACGCCACGACCGTCGCCCCTCTCCATGTCAGTCCGGAGTCACCTAGTGCAG”, 5310 fluorescence intensity (a.u.).
Under “GTTTTGCGTGCGTGGAGTATTTGTTGAGCCTTGCTACCATCGGAGTCACCTAGTGCAG” stands 5550 fluorescence intensity (a.u.); under “TATTGACTATTTTATTATTTGATGTCATTTAAGGTTCTAACGGAGTCACCTAGTGCAG”, 3180 fluorescence intensity (a.u.).
Turning to “AGCAGTCTAGCACTGTCCACGCGGGCCCCACGCCGCTCTCCGGAGTCACCTAGTGCAG”, the binding signal is 4610 fluorescence intensity (a.u.).
With “GATAACCGTAACTAACCGGCTTGGTCAGCAAGCCAAAGTGCGGAGTCACCTAGTGCAG” the figure was 6310 fluorescence intensity (a.u.); with “AAATGATGTTGATACTTGATTGGTGATATGGCACTAGTGTCGGAGTCACCTAGTGCAG”, 3860 fluorescence intensity (a.u.); with “TCTCTCCTATAGTGGTCATCAATTGTTTGTTTTGAGTAAACGGAGTCACCTAGTGCAG”, 3590 fluorescence intensity (a.u.).
Consider “CACGTACTAACTGGCGGGGTTGTGTCATCTTGTCTATGGTCGGAGTCACCTAGTGCAG”, for which the binding signal was 4850 fluorescence intensity (a.u.).
With “GACGGTGGCGGCGGGGCCTTGTCTCACCTCCCCTTTGCGCCGGAGTCACCTAGTGCAG” the figure was 27500 fluorescence intensity (a.u.); with “CGAGGGCCGCGGTGGCCACGGTGGCCGCCGCGCTGCTCGGCGGAGTCACCTAGTGCAG”, 4970 fluorescence intensity (a.u.); with “AGCCAATACGGTACACGTGGCATGACCATCACCCTGCCTCCGGAGTCACCTAGTGCAG”, 26500 fluorescence intensity (a.u.).
For “TATGCAGATATGCACGTCAGCTATCGCGGTTGTCTTTCTACGGAGTCACCTAGTGCAG”, the binding signal is 6230 fluorescence intensity (a.u.).
Under “CTTTGCGGTGGCTGCCTTGCTCCGCGTCGAGAAGTACCCACGGAGTCACCTAGTGCAG” stands 3440 fluorescence intensity (a.u.); under “CCATGTCCATGTGTCCGTGATTAGTCCATACAGTCGTCTGCGGAGTCACCTAGTGCAG”, 3990 fluorescence intensity (a.u.).
Consider “CTACTTAAACGCCACGTTACTTGTCACTGCTCTACCTGCACGGAGTCACCTAGTGCAG”, for which the binding signal was 6500 fluorescence intensity (a.u.).
“ATAAAATATTGAACTGCTAATGATAATATAATCGAGTCAACGGAGTCACCTAGTGCAG”: the binding signal is 4670 fluorescence intensity (a.u.).
On to “GATCTCCGGTGGGCCGTGGGGCGCCGCGTGGCGGAGAGAGCGGAGTCACCTAGTGCAG”, for which the binding signal was 3320 fluorescence intensity (a.u.).
